This note sets out measurements from publication PMC9559323.

Assay [1] has as its target translocated EspHwt (SBP-tagged EspH) (enteropathogenic Escherichia coli (EPEC)). The assay is described as follows: pull-down; HeLa (or Caco-2BBe) cells, untransfected or transfected with HA-tagged ABR constructs, infected with EPEC strains; SBP-tagged translocated EspH precipitated with StAv agarose beads; co-precipitated ABR detected by immunoblot (anti-ABR or anti-HA). Background: In western blotting, separated proteins are transferred to a membrane and probed.

Assay [2] has as its target EspHwt-eGFP (enteropathogenic Escherichia coli (EPEC)). The assay is described as follows: co-IP; HeLa cells co-transfected with eGFP constructs and HA-tagged ABR; lysates (10 mM Tris pH 7.4, 150 mM NaCl, 0.5% NP-40) incubated with GFP-Trap agarose beads 4 hrs at 4°C; immunoblot with anti-eGFP and anti-HA.

Results are given in words; binding and its absence hold for the method and conditions named. In cells and extracts the contact can be indirect. Binding calls can cover weak binding; strength is not graded here. Tags and fused reporters may be left off the sequences shown.

B1: endogenous active Bcr related (ABR) protein (protein, UniProt Q12979 1-859)
chain: MEPLSHRGLPRLSWIDTLYSNFSYGTDEYDGEGNEEQKGPPEGSETMPYIDESPTMSPQLSARSQGGGDGVSPTPPEGLAPGVEAGKGLEMRKLVLSGFLASEEIYINQLEALLLPMKPLKATATTSQPVLTIQQIETIFYKIQDIYEIHKEFYDNLCPKVQQWDSQVTMGHLFQKLASQLGVYKAFVDNYKVALETAEKCSQSNNQFQKISEELKVKGPKDSKDSHTSVTMEALLYKPIDRVTRSTLVLHDLLKHTPVDHPDYPLLQDALRISQNFLSSINEDIDPRRTAVTTPKGETRQLVKDGFLVEVSESSRKLRHVFLFTDVLLCAKLKKTSAGKHQQYDCKWYIPLADLVFPSPEESEASPQVHPFPDHELEDMKMKISALKSEIQKEKANKGQSRAIERLKKKMFENEFLLLLNSPTIPFRIHNRNGKSYLFLLSSDYERSEWREAIQKLQKKDLQAFVLSSVELQVLTGSCFKLRTVHNIPVTSNKDDDESPGLYGFLHVIVHSAKGFKQSANLYCTLEVDSFGYFVSKAKTRVFRDTAEPKWDEEFEIELEGSQSLRILCYEKCYDKTKVNKDNNEIVDKIMGKGQIQLDPQTVETKNWHTDVIEMNGIKVEFSMKFTSRDMSLKRTPSKKQTGVFGVKISVVTKRERSKVPYIVRQCVEEVEKRGIEEVGIYRISGVATDIQALKAVFDANNKDILLMLSDMDINAIAGTLKLYFRELPEPLLTDRLYPAFMEGIALSDPAAKENCMMHLLRSLPDPNLITFLFLLEHLKRVAEKEPINKMSLHNLATVFGPTLLRPSEVESKAHLTSAADIWSHDVMAQVQVLLYYLQHPPISFAELKRNTLYFSTDV
For the molecule B1, the binding result in assay [1] is “binds”.

B2: HA-tagged full-length (FL) human ABR (protein, UniProt Q12979 1-859)
chain: B1 chain
In the case of B2, the binding entry in assay [2] and in assay [1] was “binds” throughout.
